Measurements from publication PMC6651876, “PEA-15 C-Terminal Tail Allosterically Modulates Death-Effector Domain Conformation and Facilitates Protein–Protein Interactions” (International Journal of Molecular Sciences, 2019).
No constants are given. Whether binding was seen depends on the method and setting. Some results given as binding are weak or reduced against the parent protein; the word gives no strength.

By UniProt entry, the sequences of proteins in these tests, tags left out. Where a name states a change or a piece, a line headed by the entry shows the natural chain unless it says otherwise.
UniProt Q15121: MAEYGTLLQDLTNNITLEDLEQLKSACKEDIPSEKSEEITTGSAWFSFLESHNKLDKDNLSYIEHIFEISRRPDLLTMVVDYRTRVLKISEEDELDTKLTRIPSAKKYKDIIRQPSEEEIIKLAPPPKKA
UniProt Q13158: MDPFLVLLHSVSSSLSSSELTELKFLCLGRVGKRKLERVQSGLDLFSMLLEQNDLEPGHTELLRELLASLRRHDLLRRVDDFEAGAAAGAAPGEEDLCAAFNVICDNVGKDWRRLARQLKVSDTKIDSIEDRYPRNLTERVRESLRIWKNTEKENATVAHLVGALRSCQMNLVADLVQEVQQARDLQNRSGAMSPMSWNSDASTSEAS

Molecular target: T1, PEA-15 S104D/S116D double mutant (PEA-15DD) (UniProt Q15121 1-130, S104D | S116D)
T1 construct: PEA-15 (phosphoprotein enriched in astrocytes, 15 kDa), full length, with the phosphomimetic mutations S104D and S116D; Made by site-directed mutagenesis of the PEA-15 plasmid (pET-28b); expressed and purified as the wild type
Experiment: NMR titration; 2D HSQC of uniformly labeled PEA-15DD with unlabeled FADD at 1:1 molar ratio, against free PEA-15DD (0.7 mM); 20 mM sodium phosphate pH 7.0, 150 mM NaCl, 1 mM DTT, 25 °C; both purified

“Fas-associated death domain (FADD) protein, full length (from UniProt Q13158 1-208)” was tested, and the binding was “binds”.
